Structures can show the parent of a compound that is named as a salt. The list shows a part of the results. The calls rarely recur for the same compound in another form.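 In K562 cells expressing nanoluciferase-fused kinases, luminescence was recorded at 4 h intervals between 2 and 18 h, normalized as percent of control with DMSO at 100% and a positive control at 0%. A significant (2 sigma) signal drop marks a time point as decreased. The authors' rule for a hit is not shown and takes in more than the number of time points.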
Tests used:
Assay in all cases: kinase-Nluc reporter destabilization hit call (1 = scored as downregulated) (binary); higher = compound decreases kinase abundance
AKT1 = AKT1 (UniProt P31749); settings: K562, 2-18 h
ALK = ALK (UniProt Q9UM73); settings: K562, 2-18 h
ARAF = ARAF (UniProt P10398); settings: K562, 2-18 h
AURKA = AURKA (UniProt O14965); settings: K562, 2-18 h
AURKB = AURKB (UniProt Q96GD4); settings: K562, 2-18 h
AURKC = AURKC (UniProt Q9UQB9); settings: K562, 2-18 h
BLK = BLK (UniProt P51451); settings: K562, 2-18 h
BMX = BMX (UniProt P51813); settings: K562, 2-18 h
BRAF_V600E = settings: K562, 2-18 h
BTK = BTK (UniProt Q06187); settings: K562, 2-18 h
CAMK2A = CAMK2A (UniProt Q9UQM7); settings: K562, 2-18 h
CAMK2G = CAMK2G (UniProt Q13555); settings: K562, 2-18 h
CDK10 = CDK10 (UniProt Q15131); settings: K562, 2-18 h
CDK2 = CDK2 (UniProt P24941); settings: K562, 2-18 h
CDK3 = CDK3 (UniProt Q00526); settings: K562, 2-18 h
CDK4 = CDK4 (UniProt P11802); settings: K562, 2-18 h
CDK5 = CDK5 (UniProt Q00535); settings: K562, 2-18 h
CDK6 = CDK6 (UniProt Q00534); settings: K562, 2-18 h
ABL1 = ABL1 (UniProt P00519); settings: 10 µM; K562; 2-18 h
BRAF = BRAF (UniProt P15056); settings: K562, 2-18 h

Sequences of proteins named here, by UniProt entry; tags and fusion partners are left off. A change or cut given only in a name is not applied to a line headed by its entry.
UniProt Q9UM73: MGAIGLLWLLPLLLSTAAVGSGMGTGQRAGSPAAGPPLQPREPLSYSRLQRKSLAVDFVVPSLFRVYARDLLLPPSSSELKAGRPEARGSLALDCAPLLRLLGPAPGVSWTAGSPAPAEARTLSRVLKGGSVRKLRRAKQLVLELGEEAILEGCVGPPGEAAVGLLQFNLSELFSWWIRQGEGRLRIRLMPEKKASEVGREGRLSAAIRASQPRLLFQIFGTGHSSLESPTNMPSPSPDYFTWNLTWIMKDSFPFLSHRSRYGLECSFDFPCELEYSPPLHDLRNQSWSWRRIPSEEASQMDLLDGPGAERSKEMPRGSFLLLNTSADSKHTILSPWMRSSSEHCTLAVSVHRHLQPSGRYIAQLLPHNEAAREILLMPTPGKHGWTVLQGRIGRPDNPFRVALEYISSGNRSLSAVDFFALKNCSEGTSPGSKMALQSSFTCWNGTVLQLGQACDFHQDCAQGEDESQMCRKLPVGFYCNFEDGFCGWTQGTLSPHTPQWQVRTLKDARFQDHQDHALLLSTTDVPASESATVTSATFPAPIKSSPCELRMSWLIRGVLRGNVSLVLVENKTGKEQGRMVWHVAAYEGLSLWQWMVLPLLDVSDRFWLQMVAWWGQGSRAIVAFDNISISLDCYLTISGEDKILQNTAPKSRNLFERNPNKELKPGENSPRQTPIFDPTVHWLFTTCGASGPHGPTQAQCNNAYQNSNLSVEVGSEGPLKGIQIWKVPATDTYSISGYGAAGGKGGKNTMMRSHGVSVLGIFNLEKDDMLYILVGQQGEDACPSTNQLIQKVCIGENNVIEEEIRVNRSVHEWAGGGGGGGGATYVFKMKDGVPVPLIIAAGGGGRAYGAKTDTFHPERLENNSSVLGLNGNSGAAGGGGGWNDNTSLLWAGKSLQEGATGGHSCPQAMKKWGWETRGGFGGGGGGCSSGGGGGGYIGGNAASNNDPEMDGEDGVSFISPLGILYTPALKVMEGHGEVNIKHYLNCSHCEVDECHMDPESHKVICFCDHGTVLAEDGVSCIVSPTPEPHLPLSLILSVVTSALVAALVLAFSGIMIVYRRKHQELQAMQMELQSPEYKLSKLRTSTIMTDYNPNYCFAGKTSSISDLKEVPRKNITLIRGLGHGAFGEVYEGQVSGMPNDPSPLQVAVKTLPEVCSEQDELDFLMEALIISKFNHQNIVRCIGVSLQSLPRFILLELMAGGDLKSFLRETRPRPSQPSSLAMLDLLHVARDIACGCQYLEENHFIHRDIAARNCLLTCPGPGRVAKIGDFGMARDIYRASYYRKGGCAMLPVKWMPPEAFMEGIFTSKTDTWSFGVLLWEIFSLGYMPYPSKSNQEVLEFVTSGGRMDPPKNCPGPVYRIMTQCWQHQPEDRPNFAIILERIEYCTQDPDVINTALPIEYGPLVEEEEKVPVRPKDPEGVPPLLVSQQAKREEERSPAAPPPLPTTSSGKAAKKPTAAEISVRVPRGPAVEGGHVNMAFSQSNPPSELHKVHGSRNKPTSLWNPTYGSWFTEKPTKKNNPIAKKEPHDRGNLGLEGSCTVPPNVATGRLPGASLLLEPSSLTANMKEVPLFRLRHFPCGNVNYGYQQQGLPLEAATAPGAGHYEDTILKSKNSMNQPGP
UniProt P10398: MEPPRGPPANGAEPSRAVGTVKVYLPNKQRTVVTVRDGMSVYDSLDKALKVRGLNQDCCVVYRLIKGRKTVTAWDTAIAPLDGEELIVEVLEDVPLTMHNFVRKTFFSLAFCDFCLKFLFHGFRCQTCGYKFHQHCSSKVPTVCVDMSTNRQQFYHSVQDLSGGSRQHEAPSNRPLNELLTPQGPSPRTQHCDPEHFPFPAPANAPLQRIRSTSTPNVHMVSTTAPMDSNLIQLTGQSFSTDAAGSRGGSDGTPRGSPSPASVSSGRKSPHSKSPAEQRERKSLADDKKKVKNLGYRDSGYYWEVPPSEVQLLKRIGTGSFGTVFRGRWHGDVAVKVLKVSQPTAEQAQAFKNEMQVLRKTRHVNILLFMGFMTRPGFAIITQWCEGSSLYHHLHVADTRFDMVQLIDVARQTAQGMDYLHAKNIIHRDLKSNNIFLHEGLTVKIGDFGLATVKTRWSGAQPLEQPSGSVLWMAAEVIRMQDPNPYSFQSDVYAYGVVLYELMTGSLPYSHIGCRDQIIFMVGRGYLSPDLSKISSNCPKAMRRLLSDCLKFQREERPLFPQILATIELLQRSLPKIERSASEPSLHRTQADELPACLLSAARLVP
UniProt O14965: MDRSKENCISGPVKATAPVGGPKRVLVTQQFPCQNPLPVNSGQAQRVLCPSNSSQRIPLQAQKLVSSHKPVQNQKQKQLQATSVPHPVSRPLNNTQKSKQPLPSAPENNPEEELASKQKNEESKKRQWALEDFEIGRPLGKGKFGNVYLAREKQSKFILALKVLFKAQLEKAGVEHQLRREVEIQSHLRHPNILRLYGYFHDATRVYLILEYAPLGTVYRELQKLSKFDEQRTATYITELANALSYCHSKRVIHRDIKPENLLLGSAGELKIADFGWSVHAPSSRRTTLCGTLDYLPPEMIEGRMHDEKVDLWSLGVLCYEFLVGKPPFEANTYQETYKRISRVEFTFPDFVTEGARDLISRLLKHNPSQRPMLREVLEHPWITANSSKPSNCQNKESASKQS
UniProt P51451: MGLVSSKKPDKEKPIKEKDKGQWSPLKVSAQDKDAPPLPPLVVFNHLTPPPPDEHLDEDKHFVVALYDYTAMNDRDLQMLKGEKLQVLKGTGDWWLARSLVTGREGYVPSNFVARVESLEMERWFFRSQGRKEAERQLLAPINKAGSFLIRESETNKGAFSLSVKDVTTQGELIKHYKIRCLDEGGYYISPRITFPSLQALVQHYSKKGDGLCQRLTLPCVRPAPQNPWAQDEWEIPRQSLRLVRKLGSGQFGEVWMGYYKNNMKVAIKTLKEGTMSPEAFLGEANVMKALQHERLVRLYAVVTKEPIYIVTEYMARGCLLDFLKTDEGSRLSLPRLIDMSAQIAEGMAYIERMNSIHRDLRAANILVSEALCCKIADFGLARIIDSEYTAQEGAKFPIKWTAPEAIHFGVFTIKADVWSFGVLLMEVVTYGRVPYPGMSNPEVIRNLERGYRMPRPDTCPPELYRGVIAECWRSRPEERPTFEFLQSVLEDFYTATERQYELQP
UniProt Q9UQM7, whole entry: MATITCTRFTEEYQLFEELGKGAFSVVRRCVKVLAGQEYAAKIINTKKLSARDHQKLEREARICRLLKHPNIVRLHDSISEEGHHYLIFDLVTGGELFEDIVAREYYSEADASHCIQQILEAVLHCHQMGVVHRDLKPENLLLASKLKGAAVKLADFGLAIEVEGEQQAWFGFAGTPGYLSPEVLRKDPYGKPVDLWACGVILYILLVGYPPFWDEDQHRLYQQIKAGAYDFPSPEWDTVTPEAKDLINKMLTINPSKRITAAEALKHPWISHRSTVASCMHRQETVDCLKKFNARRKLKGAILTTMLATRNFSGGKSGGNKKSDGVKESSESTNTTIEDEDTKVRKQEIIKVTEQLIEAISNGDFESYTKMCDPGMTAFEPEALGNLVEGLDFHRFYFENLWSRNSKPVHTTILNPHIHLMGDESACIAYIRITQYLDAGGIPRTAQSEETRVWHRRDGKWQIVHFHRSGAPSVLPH
UniProt Q00526: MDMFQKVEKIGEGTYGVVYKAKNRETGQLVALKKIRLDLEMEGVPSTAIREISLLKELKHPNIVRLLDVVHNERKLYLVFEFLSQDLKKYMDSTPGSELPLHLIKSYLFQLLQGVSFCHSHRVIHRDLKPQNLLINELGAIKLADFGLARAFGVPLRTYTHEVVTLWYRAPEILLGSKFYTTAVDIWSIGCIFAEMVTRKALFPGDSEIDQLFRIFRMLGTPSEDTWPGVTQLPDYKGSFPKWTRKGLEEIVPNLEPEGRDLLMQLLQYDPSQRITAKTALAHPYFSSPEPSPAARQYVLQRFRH
UniProt P11802: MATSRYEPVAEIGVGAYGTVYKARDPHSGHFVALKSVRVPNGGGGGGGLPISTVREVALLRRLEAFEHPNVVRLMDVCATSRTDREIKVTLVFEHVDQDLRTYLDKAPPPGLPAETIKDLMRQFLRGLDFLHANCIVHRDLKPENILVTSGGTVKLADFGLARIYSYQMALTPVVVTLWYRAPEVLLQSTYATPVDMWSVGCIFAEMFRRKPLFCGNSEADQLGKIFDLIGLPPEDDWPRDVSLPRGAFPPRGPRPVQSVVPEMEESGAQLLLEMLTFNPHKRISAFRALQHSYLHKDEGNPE
UniProt Q00534, whole entry: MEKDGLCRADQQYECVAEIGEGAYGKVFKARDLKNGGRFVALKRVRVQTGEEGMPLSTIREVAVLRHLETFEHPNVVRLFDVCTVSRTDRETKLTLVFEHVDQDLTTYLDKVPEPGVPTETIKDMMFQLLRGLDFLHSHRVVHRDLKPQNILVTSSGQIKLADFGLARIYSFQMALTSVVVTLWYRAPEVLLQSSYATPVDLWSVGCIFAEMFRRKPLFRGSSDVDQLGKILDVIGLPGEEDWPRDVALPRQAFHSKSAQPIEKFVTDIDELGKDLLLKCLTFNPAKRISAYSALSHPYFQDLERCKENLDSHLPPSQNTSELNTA
UniProt P00519, whole entry: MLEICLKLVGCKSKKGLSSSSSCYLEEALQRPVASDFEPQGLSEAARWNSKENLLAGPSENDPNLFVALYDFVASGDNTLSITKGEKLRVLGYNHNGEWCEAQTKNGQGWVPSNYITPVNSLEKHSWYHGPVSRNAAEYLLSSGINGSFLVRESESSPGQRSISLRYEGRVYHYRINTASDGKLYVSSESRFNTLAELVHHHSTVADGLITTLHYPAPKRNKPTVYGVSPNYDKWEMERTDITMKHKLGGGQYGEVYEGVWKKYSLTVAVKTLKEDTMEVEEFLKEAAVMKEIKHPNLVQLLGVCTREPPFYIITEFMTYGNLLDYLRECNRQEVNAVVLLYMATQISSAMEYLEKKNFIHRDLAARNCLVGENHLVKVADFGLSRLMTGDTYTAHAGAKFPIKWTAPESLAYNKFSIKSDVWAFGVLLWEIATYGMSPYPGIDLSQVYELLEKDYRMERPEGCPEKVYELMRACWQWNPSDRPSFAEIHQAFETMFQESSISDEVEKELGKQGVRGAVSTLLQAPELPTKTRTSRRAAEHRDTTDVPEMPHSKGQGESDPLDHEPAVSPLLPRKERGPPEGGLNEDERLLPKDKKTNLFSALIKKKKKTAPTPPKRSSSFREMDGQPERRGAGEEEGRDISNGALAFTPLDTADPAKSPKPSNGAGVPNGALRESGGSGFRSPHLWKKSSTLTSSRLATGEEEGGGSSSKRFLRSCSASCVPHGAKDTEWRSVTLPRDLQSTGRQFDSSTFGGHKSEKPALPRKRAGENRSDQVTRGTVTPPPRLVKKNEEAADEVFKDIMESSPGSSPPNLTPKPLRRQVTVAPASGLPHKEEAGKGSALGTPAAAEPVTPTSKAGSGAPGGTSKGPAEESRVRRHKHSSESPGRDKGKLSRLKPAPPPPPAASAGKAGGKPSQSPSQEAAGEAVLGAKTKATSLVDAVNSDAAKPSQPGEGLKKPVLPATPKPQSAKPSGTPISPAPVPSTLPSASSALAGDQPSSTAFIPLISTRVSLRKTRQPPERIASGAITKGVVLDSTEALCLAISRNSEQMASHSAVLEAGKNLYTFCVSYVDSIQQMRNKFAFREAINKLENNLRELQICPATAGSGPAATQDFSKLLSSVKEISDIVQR
UniProt P15056, whole entry, looked up: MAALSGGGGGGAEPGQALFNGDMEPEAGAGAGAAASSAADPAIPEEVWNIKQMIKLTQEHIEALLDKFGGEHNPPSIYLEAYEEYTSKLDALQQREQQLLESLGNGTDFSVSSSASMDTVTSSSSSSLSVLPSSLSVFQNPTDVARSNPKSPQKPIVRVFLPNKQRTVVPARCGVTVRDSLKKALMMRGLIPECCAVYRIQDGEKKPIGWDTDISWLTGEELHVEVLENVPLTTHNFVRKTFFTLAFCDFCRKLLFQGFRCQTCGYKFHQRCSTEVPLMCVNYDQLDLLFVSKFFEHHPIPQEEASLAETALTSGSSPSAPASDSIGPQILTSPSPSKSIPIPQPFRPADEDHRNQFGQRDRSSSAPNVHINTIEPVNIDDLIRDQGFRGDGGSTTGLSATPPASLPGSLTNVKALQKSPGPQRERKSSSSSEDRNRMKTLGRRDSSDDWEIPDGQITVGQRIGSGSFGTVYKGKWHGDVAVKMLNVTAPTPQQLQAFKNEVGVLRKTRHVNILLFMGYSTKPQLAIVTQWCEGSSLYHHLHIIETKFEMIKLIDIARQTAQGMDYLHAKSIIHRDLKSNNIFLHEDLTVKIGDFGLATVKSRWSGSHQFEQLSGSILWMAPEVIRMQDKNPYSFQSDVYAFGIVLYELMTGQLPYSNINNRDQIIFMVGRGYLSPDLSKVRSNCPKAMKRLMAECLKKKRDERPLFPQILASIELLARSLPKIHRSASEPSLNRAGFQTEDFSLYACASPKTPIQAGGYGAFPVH

Measured: kinase-Nluc reporter destabilization hit call

CC1(C)CNc2cc(NC(=O)c3cccnc3NCc3ccncc3)ccc21 [Motesanib]
inactive: AKT1; 2.5 µM 0 | ALK; 2.5 µM 0 | ARAF; 2.5 µM 0 | AURKA; 2.5 µM 0 | AURKB; 2.5 µM 0 | AURKC; 2.5 µM 0 | BLK; 2.5 µM 0 | BMX; 2.5 µM 0 | BRAF_V600E; 2.5 µM 0 | BTK; 2.5 µM 0 | CAMK2A; 2.5 µM 0 | CAMK2G; 2.5 µM 0 | CDK10; 2.5 µM 0 | CDK2; 2.5 µM 0 | CDK3; 2.5 µM 0 | CDK4; 2.5 µM 0 | CDK5; 2.5 µM 0 | CDK6; 2.5 µM 0

O=S(=O)(c1cccc2c(O)nccc12)N1CCCNCC1 [Hydroxyfasudil (hydrochloride)]
inactive: AKT1; 10 µM 0 | ALK; 10 µM 0 | ARAF; 10 µM 0 | AURKA; 10 µM 0 | AURKB; 10 µM 0 | AURKC; 10 µM 0 | BLK; 10 µM 0 | BMX; 10 µM 0 | BRAF_V600E; 10 µM 0 | BTK; 10 µM 0 | CAMK2A; 10 µM 0 | CAMK2G; 10 µM 0 | CDK10; 10 µM 0 | CDK2; 10 µM 0 | CDK3; 10 µM 0 | CDK4; 10 µM 0 | CDK5; 10 µM 0 | CDK6; 10 µM 0

N#CC(=Cc1cc(Cl)cc(Cl)c1)c1cccnc1
inactive: ABL1 = 0 | ALK; 10 µM 0 | AURKA; 10 µM 0 | AURKB; 10 µM 0 | BLK; 10 µM 0 | BMX; 10 µM 0 | BRAF; 10 µM 0 | BTK; 10 µM 0 | CAMK2G; 10 µM 0 | CDK2; 10 µM 0 | CDK4; 10 µM 0 | CDK5; 10 µM 0 | CDK6; 10 µM 0

Cc1ccc(-n2nc(C(C)(C)C)cc2NC(=O)Nc2ccc(OCCN3CCOCC3)c3ccccc23)cc1 [Doramapimod]
inactive: AKT1; 10 µM 0 | ALK; 10 µM 0 | ARAF; 10 µM 0 | AURKA; 10 µM 0 | AURKB; 10 µM 0 | AURKC; 10 µM 0 | BLK; 10 µM 0 | BMX; 10 µM 0 | BRAF_V600E; 10 µM 0 | BTK; 10 µM 0 | CAMK2A; 10 µM 0 | CAMK2G; 10 µM 0 | CDK10; 10 µM 0 | CDK2; 10 µM 0 | CDK3; 10 µM 0 | CDK4; 10 µM 0 | CDK5; 10 µM 0 | CDK6; 10 µM 0

CCN(CC)CCNC(=O)c1c(C)[nH]c(/C=C2\C(=O)Nc3ccc(F)cc32)c1C [Sunitinib]
inactive: AKT1; 2.5 µM 0 | ALK; 2.5 µM 0 | ARAF; 2.5 µM 0 | AURKA; 2.5 µM 0 | AURKB; 2.5 µM 0 | AURKC; 2.5 µM 0 | BLK; 2.5 µM 0 | BMX; 2.5 µM 0 | BRAF; 2.5 µM 0 | BRAF_V600E; 2.5 µM 0 | BTK; 2.5 µM 0 | CAMK2A; 2.5 µM 0 | CAMK2G; 2.5 µM 0 | CDK10; 2.5 µM 0 | CDK3; 2.5 µM 0 | CDK4; 2.5 µM 0 | CDK6; 2.5 µM 0

CCn1c(=O)c(-c2cc(NC(=O)Nc3ccccc3)c(F)cc2Br)cc2cnc(NC)cc21 [Ripretinib]
active: BRAF_V600E; 10 µM 1
inactive: ABL1 = 0 | AKT1; 10 µM 0 | ARAF; 10 µM 0 | AURKA; 10 µM 0 | AURKB; 10 µM 0 | AURKC; 10 µM 0 | BLK; 10 µM 0 | BMX; 10 µM 0 | BRAF; 10 µM 0 | BTK; 10 µM 0 | CAMK2A; 10 µM 0 | CAMK2G; 10 µM 0 | CDK10; 10 µM 0 | CDK2; 10 µM 0 | CDK3; 10 µM 0 | CDK4; 10 µM 0 | CDK5; 10 µM 0 | CDK6; 10 µM 0

Random excerpt: 2 records from the list, in no set order.
CCN(CC)CCNC(=O)c1c(C)[nH]c(/C=C2\C(=O)Nc3ccc(F)cc32)c1C [Sunitinib]
inactive: AKT1; 2.5 µM 0 | ALK; 2.5 µM 0 | ARAF; 2.5 µM 0 | AURKA; 2.5 µM 0 | AURKB; 2.5 µM 0 | AURKC; 2.5 µM 0 | BLK; 2.5 µM 0 | BMX; 2.5 µM 0 | BRAF; 2.5 µM 0 | BRAF_V600E; 2.5 µM 0 | BTK; 2.5 µM 0 | CAMK2A; 2.5 µM 0 | CAMK2G; 2.5 µM 0 | CDK10; 2.5 µM 0 | CDK3; 2.5 µM 0 | CDK4; 2.5 µM 0 | CDK6; 2.5 µM 0

O=S(=O)(c1cccc2c(O)nccc12)N1CCCNCC1 [Hydroxyfasudil (hydrochloride)]
inactive: AKT1; 10 µM 0 | ALK; 10 µM 0 | ARAF; 10 µM 0 | AURKA; 10 µM 0 | AURKB; 10 µM 0 | AURKC; 10 µM 0 | BLK; 10 µM 0 | BMX; 10 µM 0 | BRAF_V600E; 10 µM 0 | BTK; 10 µM 0 | CAMK2A; 10 µM 0 | CAMK2G; 10 µM 0 | CDK10; 10 µM 0 | CDK2; 10 µM 0 | CDK3; 10 µM 0 | CDK4; 10 µM 0 | CDK5; 10 µM 0 | CDK6; 10 µM 0

The list goes on.

NC1(C(=O)N[C@@H](CCO)c2ccc(Cl)cc2)CCN(c2nc[nH]c3nccc2-3)CC1 [Capivasertib]
inactive: ABL1 = 0 | ALK; 10 µM 0 | ARAF; 10 µM 0 | AURKA; 10 µM 0 | AURKB; 10 µM 0 | AURKC; 10 µM 0 | BLK; 10 µM 0 | BMX; 10 µM 0 | BRAF; 10 µM 0 | BRAF_V600E; 10 µM 0 | BTK; 10 µM 0 | CAMK2A; 10 µM 0 | CAMK2G; 10 µM 0 | CDK10; 10 µM 0 | CDK2; 10 µM 0 | CDK3; 10 µM 0 | CDK4; 10 µM 0 | CDK5; 10 µM 0 | CDK6; 10 µM 0

Cc1ccc(Nc2nccc(N(C)c3ccc4c(C)n(C)nc4c3)n2)cc1S(N)(=O)=O [Pazopanib]
inactive: AKT1; 10 µM 0 | ALK; 10 µM 0 | ARAF; 10 µM 0 | AURKA; 10 µM 0 | AURKB; 10 µM 0 | AURKC; 10 µM 0 | BLK; 10 µM 0 | BMX; 10 µM 0 | BRAF_V600E; 10 µM 0 | BTK; 10 µM 0 | CAMK2A; 10 µM 0 | CAMK2G; 10 µM 0 | CDK10; 10 µM 0 | CDK2; 10 µM 0 | CDK3; 10 µM 0 | CDK4; 10 µM 0 | CDK5; 10 µM 0 | CDK6; 10 µM 0

Cc1ccc(Nc2nccc(N(C)c3ccc4c(C)n(C)nc4c3)n2)cc1S(N)(=O)=O [Pazopanib (Hydrochloride)]
inactive: AKT1; 10 µM 0 | ALK; 10 µM 0 | ARAF; 10 µM 0 | AURKA; 10 µM 0 | AURKB; 10 µM 0 | AURKC; 10 µM 0 | BLK; 10 µM 0 | BMX; 10 µM 0 | BRAF_V600E; 10 µM 0 | BTK; 10 µM 0 | CAMK2A; 10 µM 0 | CAMK2G; 10 µM 0 | CDK10; 10 µM 0 | CDK2; 10 µM 0 | CDK3; 10 µM 0 | CDK4; 10 µM 0 | CDK5; 10 µM 0 | CDK6; 10 µM 0

C[C@@]1(C(=O)Nc2ccc(F)nc2)CCCN1c1nc(Nc2cc(C3CC3)n[nH]2)c2cccn2n1
inactive: ABL1 = 0 | AKT1; 10 µM 0 | ARAF; 10 µM 0 | AURKA; 10 µM 0 | AURKB; 10 µM 0 | AURKC; 10 µM 0 | BLK; 10 µM 0 | BMX; 10 µM 0 | BRAF; 10 µM 0 | BTK; 10 µM 0 | CAMK2A; 10 µM 0 | CAMK2G; 10 µM 0 | CDK10; 10 µM 0 | CDK2; 10 µM 0 | CDK3; 10 µM 0 | CDK4; 10 µM 0 | CDK5; 10 µM 0 | CDK6; 10 µM 0

From the supplement of paper PMC12823440, “Inhibitors supercharge kinase turnover through native proteolytic circuits” (Nature, 2025)
